Experimental data from publication PMC7224204.
These are yes or no findings as the source states them, for the method shown. Binding seen in cells or lysates may run through a third protein. Some entries that bind do so weakly or less than the wild type.

By UniProt entry, the sequences of proteins in these tests, tags left out. Residues count along the entry.
UniProt O75460, residues 19-977: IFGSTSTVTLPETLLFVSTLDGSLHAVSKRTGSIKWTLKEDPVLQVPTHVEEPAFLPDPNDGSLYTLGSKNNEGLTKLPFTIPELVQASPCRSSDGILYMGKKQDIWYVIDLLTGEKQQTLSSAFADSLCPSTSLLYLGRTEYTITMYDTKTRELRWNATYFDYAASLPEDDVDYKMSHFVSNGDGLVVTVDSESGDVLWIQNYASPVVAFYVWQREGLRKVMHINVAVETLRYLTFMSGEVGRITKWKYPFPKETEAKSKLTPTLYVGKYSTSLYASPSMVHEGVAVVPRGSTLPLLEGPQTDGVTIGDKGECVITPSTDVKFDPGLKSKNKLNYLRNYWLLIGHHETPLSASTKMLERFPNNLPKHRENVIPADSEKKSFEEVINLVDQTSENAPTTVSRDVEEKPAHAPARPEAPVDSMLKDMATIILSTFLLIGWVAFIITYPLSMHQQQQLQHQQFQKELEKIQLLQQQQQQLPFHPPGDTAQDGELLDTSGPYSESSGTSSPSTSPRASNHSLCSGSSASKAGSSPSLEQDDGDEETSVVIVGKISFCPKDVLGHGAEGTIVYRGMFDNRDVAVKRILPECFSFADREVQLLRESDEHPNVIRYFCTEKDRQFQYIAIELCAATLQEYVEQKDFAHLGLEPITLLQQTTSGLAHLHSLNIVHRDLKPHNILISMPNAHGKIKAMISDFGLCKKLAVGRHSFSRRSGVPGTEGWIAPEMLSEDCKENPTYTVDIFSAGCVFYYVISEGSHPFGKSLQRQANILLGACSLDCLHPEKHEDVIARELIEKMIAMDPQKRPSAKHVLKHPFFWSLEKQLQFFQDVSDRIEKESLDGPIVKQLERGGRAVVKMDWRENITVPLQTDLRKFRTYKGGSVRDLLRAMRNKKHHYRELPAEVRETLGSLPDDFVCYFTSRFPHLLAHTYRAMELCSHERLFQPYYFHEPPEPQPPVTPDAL
UniProt P20029, residues 20-655: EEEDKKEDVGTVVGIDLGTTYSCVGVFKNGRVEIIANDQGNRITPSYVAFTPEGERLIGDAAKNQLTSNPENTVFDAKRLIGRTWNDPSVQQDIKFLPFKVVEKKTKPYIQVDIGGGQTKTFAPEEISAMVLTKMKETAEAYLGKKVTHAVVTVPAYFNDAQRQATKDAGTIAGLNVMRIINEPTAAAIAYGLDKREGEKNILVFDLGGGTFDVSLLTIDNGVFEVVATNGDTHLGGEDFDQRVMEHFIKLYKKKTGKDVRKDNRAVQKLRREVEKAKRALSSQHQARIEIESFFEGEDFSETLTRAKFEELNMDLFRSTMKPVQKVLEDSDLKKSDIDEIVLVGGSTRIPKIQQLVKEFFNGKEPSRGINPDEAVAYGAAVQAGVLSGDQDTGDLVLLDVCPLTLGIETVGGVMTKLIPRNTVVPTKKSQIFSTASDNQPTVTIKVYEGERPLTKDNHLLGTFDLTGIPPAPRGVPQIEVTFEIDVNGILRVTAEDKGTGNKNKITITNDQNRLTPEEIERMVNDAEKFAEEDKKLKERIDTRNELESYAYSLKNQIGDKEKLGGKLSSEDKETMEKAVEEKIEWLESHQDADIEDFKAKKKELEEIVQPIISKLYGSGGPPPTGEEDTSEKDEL
UniProt P00519: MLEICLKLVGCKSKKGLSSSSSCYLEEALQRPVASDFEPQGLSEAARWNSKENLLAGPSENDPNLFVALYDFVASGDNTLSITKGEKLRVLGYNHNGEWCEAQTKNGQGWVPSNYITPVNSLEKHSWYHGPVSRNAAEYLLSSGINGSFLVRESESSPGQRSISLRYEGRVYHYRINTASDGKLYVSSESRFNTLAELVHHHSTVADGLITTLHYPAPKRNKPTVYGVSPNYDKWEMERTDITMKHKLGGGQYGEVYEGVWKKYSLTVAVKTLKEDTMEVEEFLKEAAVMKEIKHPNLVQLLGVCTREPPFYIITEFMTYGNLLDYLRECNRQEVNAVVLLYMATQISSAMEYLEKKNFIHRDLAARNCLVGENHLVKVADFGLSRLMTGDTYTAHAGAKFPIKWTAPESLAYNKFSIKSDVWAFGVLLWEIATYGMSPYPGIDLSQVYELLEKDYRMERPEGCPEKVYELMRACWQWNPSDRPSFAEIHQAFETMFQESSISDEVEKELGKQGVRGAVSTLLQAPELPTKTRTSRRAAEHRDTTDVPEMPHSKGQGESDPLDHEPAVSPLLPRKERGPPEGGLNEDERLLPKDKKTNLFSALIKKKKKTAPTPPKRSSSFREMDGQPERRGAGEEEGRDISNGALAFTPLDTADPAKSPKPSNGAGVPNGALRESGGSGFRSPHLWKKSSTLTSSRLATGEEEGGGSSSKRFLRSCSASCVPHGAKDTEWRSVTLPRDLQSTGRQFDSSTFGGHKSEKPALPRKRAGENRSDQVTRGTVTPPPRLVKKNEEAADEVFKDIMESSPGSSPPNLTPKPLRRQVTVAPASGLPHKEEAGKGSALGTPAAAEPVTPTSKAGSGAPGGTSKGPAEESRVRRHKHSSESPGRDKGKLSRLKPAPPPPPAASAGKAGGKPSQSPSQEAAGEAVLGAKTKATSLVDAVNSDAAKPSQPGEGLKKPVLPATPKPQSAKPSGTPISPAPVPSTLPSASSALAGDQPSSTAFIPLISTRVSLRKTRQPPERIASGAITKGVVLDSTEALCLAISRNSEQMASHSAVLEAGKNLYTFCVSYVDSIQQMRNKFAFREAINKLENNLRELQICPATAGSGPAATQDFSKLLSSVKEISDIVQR
UniProt P00520: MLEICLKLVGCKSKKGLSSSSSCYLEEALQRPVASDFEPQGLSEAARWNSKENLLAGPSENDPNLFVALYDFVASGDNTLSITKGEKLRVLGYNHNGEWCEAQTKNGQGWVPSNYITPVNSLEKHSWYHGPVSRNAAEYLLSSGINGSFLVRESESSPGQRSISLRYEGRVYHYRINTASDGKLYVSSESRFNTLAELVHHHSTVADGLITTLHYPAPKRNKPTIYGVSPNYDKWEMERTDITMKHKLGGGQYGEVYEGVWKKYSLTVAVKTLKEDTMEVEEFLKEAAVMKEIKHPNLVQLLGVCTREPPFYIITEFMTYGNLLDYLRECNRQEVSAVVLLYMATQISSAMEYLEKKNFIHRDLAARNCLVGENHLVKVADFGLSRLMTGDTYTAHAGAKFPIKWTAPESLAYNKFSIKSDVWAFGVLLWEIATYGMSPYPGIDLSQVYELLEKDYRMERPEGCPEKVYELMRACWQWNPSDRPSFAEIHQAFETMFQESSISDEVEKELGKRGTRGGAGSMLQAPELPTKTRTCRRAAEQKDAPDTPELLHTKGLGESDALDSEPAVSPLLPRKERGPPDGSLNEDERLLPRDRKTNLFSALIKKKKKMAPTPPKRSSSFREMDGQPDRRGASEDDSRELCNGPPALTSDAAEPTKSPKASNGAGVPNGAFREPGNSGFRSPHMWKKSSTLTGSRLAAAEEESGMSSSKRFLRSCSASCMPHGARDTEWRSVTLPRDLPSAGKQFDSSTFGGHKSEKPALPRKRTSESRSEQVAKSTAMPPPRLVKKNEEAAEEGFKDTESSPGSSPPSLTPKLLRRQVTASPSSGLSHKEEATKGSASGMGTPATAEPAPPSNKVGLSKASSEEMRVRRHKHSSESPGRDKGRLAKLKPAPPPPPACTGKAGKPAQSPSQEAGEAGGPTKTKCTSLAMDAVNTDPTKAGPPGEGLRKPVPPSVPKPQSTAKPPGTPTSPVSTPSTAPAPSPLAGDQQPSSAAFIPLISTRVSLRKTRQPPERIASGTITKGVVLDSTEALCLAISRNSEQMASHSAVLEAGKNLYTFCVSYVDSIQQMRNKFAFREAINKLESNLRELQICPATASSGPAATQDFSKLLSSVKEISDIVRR

Experiments:
[1] = biological target: IRE1α-HA (inositol requiring enzyme 1 alpha, HA-tagged), stably reconstituted in IRE1α-deficient MEF cells (UniProt O75460); assay: co-IP; IP of HA-tagged IRE1α with anti-HA agarose, blot for BiP; cells untreated, with etoposide or with ER stress (tunicamycin); lysis buffer 0.5% NP-40, 50 mM NaCl, 50 mM Tris pH 7.6, last wash with 350 mM NaCl
[2] = biological target: IRE1α-HA (inositol requiring enzyme 1 alpha, HA-tagged), expressed in HEK-293T cells (UniProt O75460); assay: co-IP; HEK-293T cells overexpressing IRE1α-HA and c-Abl-GFP, with or without 10 μM etoposide; IP by the HA epitope (IRE1α) and by GFP (c-Abl); lysis buffer 0.5% NP-40, 50 mM NaCl, 50 mM Tris pH 7.6; anti-HA agarose 4 h at 4 °C, last wash with 350 mM NaCl; western blot
[3] = biological target: IRE1α-HA (inositol requiring enzyme 1 alpha, HA-tagged), stably reconstituted in IRE1α-deficient MEF cells (UniProt O75460); assay: proximity ligation; IRE1α KO MEF reconstituted with IRE1α-HA (Mock as control), basal or 10 μM etoposide 8 h; fixed cells, anti-HA and anti-c-Abl antibodies, Duolink, confocal microscopy

## BiP (ER chaperone) (from UniProt P20029 20-655)
[1]
  binding: binds

## c-Abl-GFP (from UniProt P00519 1-1130)
[2]
  binding: binds

## endogenous c-Abl (MEF cells) (from UniProt P00520 1-1123)
[3]
  binding: binds
